In PubChem BioAssay AID463205 (Broad Institute, 2010):
The whole screen tested about 2,400 compounds, of which about 20 (0.8%) were called active.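 Rule for the calls: active = AC50 no more than ten times the highest tested concentration, or full inhibition at every dose giving a flat fit (cut at about 30 µM in these data); inconclusive = flat fit with activity between 30% and 70%, or poor-quality invalid fit; inactive = AC50 more than ten times the top tested dose.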 This is one part of the list.

Experiment: inhibitors of ADP-Glo detection reagents, dose response, artefact control for GSK-3a inhibitor project, biochemical, luminescence, cell-free, homogeneous (AID 463205);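 note: kinase-free counter-screen against the ADP-Glo detection reagents only; potency is for inhibitors that reduce the luminescence signal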
Settings: 5 uM ADP

AC50, inactive:
Cc1c(/C=N/Nc2ccc([N+](=O)[O-])cn2)c2ccccc2n1Cc1ccccc1 > 30 µM
COc1cc(OC)cc(C2C(C#N)=C(N)Oc3n[nH]c(-c4cccnc4)c32)c1 (configuration not stated) > 30 µM
Cc1ccc(C)c(-n2c3nc(=O)n(C)c(=O)c-3cc3ccccc32)c1 > 30 µM
O=C(c1ccco1)N(Cc1ccccc1)c1cccc([N+](=O)[O-])c1 > 30 µM
Cc1ccc2oc(=O)c3cnn(CC(=O)N4CCCCC4C)c3c2c1 (configuration not stated) > 30 µM
N#CC1=C(N)C(C#N)(C#N)C(c2ccc[nH]2)C2CCCC=C12 (configuration not stated) > 30 µM
NC(=O)CSc1nc(C2CC2)nc2sc3c(c12)CCCC3 > 30 µM
O=c1c(O[C@H]2O[C@@H](CO)[C@H](O)[C@@H](O)[C@@H]2O)c(-c2ccc(O)cc2)oc2cc(O)cc(O)c12 > 30 µM
CCOC(=O)c1ccc(N2C=C(C(=O)OC)C(c3ccc(OC)c(O)c3)C(C(=O)OC)=C2)cc1 > 30 µM
CCOC(=O)c1cc(C(=O)OCC)c2cc(Br)ccc2n1 > 30 µM
C=CCSc1ncnc2c1oc1nc3c(cc12)COC(C)(C)C3 > 30 µM
Cc1ccc(-c2cn3cccnc3n2)cc1NC(=O)c1ccc(Br)o1 > 30 µM
Cc1csc(NC(=O)C2CC(=O)N(c3ccc(C)c(C)c3)C2)n1 (configuration not stated) > 30 µM
CC(C)NC(=O)/C(=C\c1cccc([N+](=O)[O-])c1)NC(=O)c1ccccc1 > 30 µM
COc1ccc(/C=N/NC(=O)c2nnn(-c3nonc3N)c2-c2cccs2)c(OC)c1 > 30 µM
CN1/C(=C\C=C2/SC(=S)NC2=O)C(C)(C)c2ccccc21 > 30 µM
Cc1cccc(NC(=O)CSCc2nc3c(nnn3Cc3ccc(F)cc3)c(=O)[nH]2)c1C > 30 µM
COc1ccc(C2CC(=O)Nc3n[nH]c(-c4ccccc4)c32)cc1OC (configuration not stated) > 30 µM
Cc1cccc(NC(=O)COC(=O)c2ccccn2)c1 > 30 µM
COc1ccc2nc(NC(=O)CSc3nnc(-c4ccoc4C)n3C)sc2c1 > 30 µM
N#Cc1c(C#N)c(-c2ccccc2)n(-c2ccc(C(=O)O)cc2)c1N > 30 µM
Cc1ccc(N(Cc2ccc([N+](=O)[O-])cc2)C(=O)c2ccco2)cc1C > 30 µM
CS(=O)(=O)Nc1ccc(-c2ccc(/C=C3\SC(N)=NC3=O)o2)cc1 > 30 µM
O=C(O)c1cc2ncc(-c3[nH]ncc3[N+](=O)[O-])cn2n1 > 30 µM
Nc1ccc2c(c1)C(=O)c1ccccc1C2=O > 30 µM
COc1ccc(-c2nnc(SCC(=O)Nc3ccccc3OC)o2)cc1 > 30 µM
O=C(Nc1ccc(C(=O)NC2CCCCC2)cc1)c1cccnc1 > 30 µM
CCOc1ccc2ncc(S(=O)(=O)c3ccccc3)c(N3CCN(c4ccc(OC)cc4)CC3)c2c1 > 30 µM
CCOc1ccc(-c2ncncc2-c2ccc(OC)cc2)c(O)c1 > 30 µM
S=C(Nc1cccnc1)Nc1ccccn1 > 30 µM
COc1ccc(-c2csc3nc(C)nc(N4CCC(C)CC4)c23)cc1OC > 30 µM
O=C1NC(=O)/C(=C/c2ccc(-c3cc(C(=O)O)ccc3Cl)o2)S1 > 30 µM
NS(=O)(=O)c1ccc(N=Nc2ccc(=O)[nH]c2O)cc1 > 30 µM
O=C(Oc1cccc(NC(=O)c2ccco2)c1)c1cccc(S(=O)(=O)N2CCCCC2)c1 > 30 µM
Cc1sc2ncnc(NCCCN3CCCC3=O)c2c1C > 30 µM
CCOC(=O)c1c(NC(=O)CN2C(=O)NC3(CCCCC3C)C2=O)sc(C)c1C (configuration not stated) > 30 µM
O=S(=O)(Nc1ccccc1O)c1cccc2cccnc12 > 30 µM
Nc1nc(N)nc(-c2cc(F)ccc2O)n1 > 30 µM
Cc1c(C(=O)OCCOC(C)C)[nH]c2c1C(=O)CC(c1ccco1)C2 (configuration not stated) > 30 µM
NS(=O)(=O)c1cccc(NC(=O)CSc2nnc(-c3ccccc3)o2)c1 > 30 µM
NC(=O)c1cc([N+](=O)[O-])ccc1NCc1cccc([N+](=O)[O-])c1 > 30 µM
CCOc1ccc(/C=N/NC(=O)c2nnn(-c3nonc3N)c2CN2CCC(C)CC2)cc1 > 30 µM
CC1CCCCC1NC(=O)C(=O)NCC1CCCO1 (configuration not stated) > 30 µM
Cc1nnc(SCC(=O)N2c3ccccc3CC2C)s1 (configuration not stated) > 30 µM
CCc1ccc(NC(=S)NC(=O)CC(C)C)cc1 > 30 µM
O=c1cc(-c2ccccc2)[nH]n1-c1ccc([N+](=O)[O-])cc1 > 30 µM
C/C(CC(=O)Nc1ccc(Cl)cc1Cl)=N\NC(=O)C(=O)N1CCCC1 > 30 µM
Cc1ccsc1C1C2=C(CC(C)(C)CC2=O)Nc2ncnn21 (configuration not stated) > 30 µM
Cc1ccc(Cn2nc(-c3ccccc3)nc2-c2ccccc2)cc1 > 30 µM
S=C(NCc1ccccc1)NCc1ccc2c(c1)OCO2 > 30 µM
CCOC(=O)c1sc(N)c(C(N)=O)c1C > 30 µM
COc1cc(CN2CCCN(C)CC2)c([N+](=O)[O-])cc1OC > 30 µM
O=C1c2ccccc2-c2onc3ccc(NCc4ccco4)c1c23 > 30 µM
CC1(C)Cc2cccc(C(=O)Nc3ccncc3)c2O1 > 30 µM
COc1cccc(NC(=O)c2cnc[nH]2)c1 > 30 µM
COc1ccc2cc(C(=O)NCc3ccco3)c(=O)oc2c1 > 30 µM
CCCCSc1nc(C)[nH]c1[N+](=O)[O-] > 30 µM
Cc1ccc(CSc2nnc(-c3cccnc3)o2)cc1 > 30 µM
Cc1ccc(Sc2ccc(NC(=O)CCl)cc2)cc1C > 30 µM
CC(=O)Nc1ccc(NC(=O)CSc2nnc(-c3ccc4c(c3)OCO4)o2)cc1 > 30 µM
CCN1CCN(c2nc(Nc3ccccc3F)nc(N)c2[N+](=O)[O-])CC1 > 30 µM
O=C(CNC(=O)c1ccccc1)N/N=C/C=C/c1ccccc1 > 30 µM
Clc1ccc(C2=Nn3c(nnc3-c3cccnc3)SC2)s1 > 30 µM
Cc1c(C(=O)OC(C)C)[nH]c2c1C(=O)CC(C)(C)C2 > 30 µM
CSc1ncccc1-c1nc2ccccc2[nH]1 > 30 µM
CCN(CC)CCCN(Cc1cc2cc3c(cc2[nH]c1=O)OCO3)C(=O)Nc1ccccc1OC > 30 µM
CCOCCOC(=O)c1[nH]c2c(c1C)C(=O)CC(c1cc(OC)c(OC)c(OC)c1)C2 (configuration not stated) > 30 µM
CCCCc1cc(=O)oc2cc(O)ccc12 > 30 µM
Cn1c(=O)c2[nH]c(CNc3ccc(C(=O)O)cc3)nc2n(C)c1=O > 30 µM
Cc1cccc(-n2ncc(C#N)c2-n2cccc2)c1 > 30 µM
CC1=C(C(=O)OCc2ccc3c(c2)OCO3)C(c2ccccc2OCc2ccccc2)NC(=O)N1 (configuration not stated) > 30 µM
Cn1c(SCc2nc(-c3ccc(Cl)cc3)no2)nnc1-c1ccccc1 > 30 µM
O=C(O)COc1ccc2c(c1)O/C(=C\c1cccs1)C2=O > 30 µM
COc1ccc2[nH]c(=O)c3c(c2c1)OC(C)(C)C=C3 > 30 µM
COc1cc2c(C#N)c(N3CCCCC3)nc(N)c2c(N)n1 > 30 µM
CC1=C(C(=O)OCc2ccc3c(c2)OCO3)C(c2ccccc2)NC(=O)N1 (configuration not stated) > 30 µM
COc1ccc(C2NC(=O)NC(C)=C2C(=O)OCc2ccc3c(c2)OCO3)cc1OC (configuration not stated) > 30 µM
Cc1nc(SCC(=O)Nc2nc3ccccc3s2)n[nH]1 > 30 µM
CC1=C(C(=O)OCc2ccc3c(c2)OCO3)C(c2cccc([N+](=O)[O-])c2)NC(=O)N1 (configuration not stated) > 30 µM
c1ccc(-c2nc3ccccc3[nH]2)cc1 > 30 µM
CCN(C(=O)C1CCCN1S(=O)(=O)c1cccc2nsnc12)c1ccccc1 (configuration not stated) > 30 µM
Oc1ccc2oc3c(c2c1/C=N/n1cnnc1)CCCC3 > 30 µM
Cc1ccc(Nc2nc(N)c([N+](=O)[O-])c(NCc3ccco3)n2)cc1C > 30 µM
COc1ccc(N=c2oc3c(OC)cccc3cc2C(=O)NCc2ccco2)cc1OC > 30 µM
O=C(COC(=O)c1cccc(S(=O)(=O)N2CCOCC2)c1)Nc1ncc(Cl)cc1Cl > 30 µM
CC(C)CCNC(=O)CN(Cc1cccs1)C(=O)CCC(=O)Nc1nccs1 > 30 µM
CCN(C(=O)CN1CCCCC1)c1c(N)n(Cc2ccccc2)c(=O)[nH]c1=O > 30 µM
NCCNc1cc(N2CCCC2)ccc1[N+](=O)[O-] > 30 µM
Nc1nonc1-n1nnc(C(=O)N/N=C/c2ccccc2Cl)c1-c1ccccc1 > 30 µM
CCOC(=O)c1c(NC(=O)CN2C(=O)NC3(CCCCC3C)C2=O)sc(C)c1CC (configuration not stated) > 30 µM
Cc1cc(O)c2c(-c3ccccc3)cc(=O)oc2c1 > 30 µM
CCOC(=O)c1[nH]c2c(c1-c1ccccc1)C(=O)CC(c1ccc(Cl)cc1)C2 (configuration not stated) > 30 µM

2 records picked at random from those above:
AC50, inactive:
CS(=O)(=O)Nc1ccc(-c2ccc(/C=C3\SC(N)=NC3=O)o2)cc1 > 30 µM
COc1ccc(-c2csc3nc(C)nc(N4CCC(C)CC4)c23)cc1OC > 30 µM

Three compounds from above, arranged by number of heavy atoms, ascending.
AC50, inactive:
O=C(O)c1cc2ncc(-c3[nH]ncc3[N+](=O)[O-])cn2n1 > 30 µM
CCOCCOC(=O)c1[nH]c2c(c1C)C(=O)CC(c1cc(OC)c(OC)c(OC)c1)C2 (configuration not stated) > 30 µM
CCOC(=O)c1ccc(N2C=C(C(=O)OC)C(c3ccc(OC)c(O)c3)C(C(=O)OC)=C2)cc1 > 30 µM
